The values below come from article PMC8021557.

Positions count from the first letter of the chain named. Names and notes keep the numbering of the source. No constants are given. Whether binding was seen depends on the method and setting. Binding calls can cover weak binding; strength is not graded here. For some assays here: Binding seen in cells or lysates may run through a third protein. For some assays here: Where a sequence is shown, tags or fusion partners need not be part of it.

Experiment [1] concerns the target GST-SMG7 C-terminal LCR fragment (human (cDNA from HCT116 cells)). The experiment in a line: pull-down; GST and GST-SMG7 fragments on glutathione agarose incubated with lysates from 293FT cells transiently expressing HA-RAD17, overnight at 4 °C; BC100 washes; western blot with α-RAD17; only the target purified. For orientation: In western blotting, separated proteins are transferred to a membrane and probed.

Experiment [2] deals with GST-SMG7 N-terminal fragment containing the 14-3-3 domain (human (cDNA from HCT116 cells)). The description is as above.
In experiment [3] the target is GST-SMG7 C-terminal LCR fragment (human (cDNA from HCT116 cells)). In words: pull-down; GST or GST-SMG7 fragments on glutathione agarose incubated with purified FH-RAD17 or FH-RAD17-S635A, overnight at 4 °C; BC100 washes; western blot with α-RAD17 and α-RAD17-pS635; both purified.
In experiment [4] the target is GST-SMG7 N-terminal fragment containing the 14-3-3 domain (human (cDNA from HCT116 cells)). The description is as above.

B1: HA-RAD17, expressed in 293FT cells (protein, UniProt O75943-2 1-670)
chain: MNQVTDWVDPSFDDFLECSGVSTITATSLGVNNSSHRRKNGPSTLESSRFPARKRGNLSSLEQIYGLENSKEYLSENEPWVDKYKPETQHELAVHKKKIEEVETWLKAQVLERQPKQGGSILLITGPPGCGKTTTLKILSKEHGIQVQEWINPVLPDFQKDDFKGMFNTESSFHMFPYQSQIAVFKEFLLRATKYNKLQMLGDDLRTDKKIILVEDLPNQFYRDSHTLHEVLRKYVRIGRCPLIFIISDSLSGDNNQRLLFPKEIQEECSISNISFNPVAPTIMMKFLNRIVTIEANKNGGKITVPDKTSLELLCQGCSGDIRSAINSLQFSSSKGENNLRPRKKGMSLKSDAVLSKSKRRKKPDRVFENQEVQAIGGKDVSLFLFRALGKILYCKRASLTELDSPRLPSHLSEYERDTLLVEPEEVVEMSHMPGDLFNLYLHQNYIDFFMEIDDIVRASEFLSFADILSGDWNTRSLLREYSTSIATRGVMHSNKARGYAHCQGGGSSFRPLHKPQWFLINKKYRENCLAAKALFPDFCLPALCLQTQLLPYLALLTIPMRNQAQISFIQDIGRLPLKRHFGRLKMEALTDREHGMIDPDSGDEAQLNGGHSAEESLGEPTQATVPETWSLPLSQNSASELPASQPQPFSAQGDMEENIIIEDYESDGT
For the molecule B1, the binding result in experiment [1] and in experiment [2] was “binds” in each case.

B2: FH-RAD17-S635A protein purified from transfected 293FT cells (protein, UniProt O75943-2 1-670)
chain: B1 chain with S635A
For the molecule B2, the binding result in experiment [3] is listed as “binds”.

B3: FH-RAD17 protein purified from transfected 293FT cells (protein, UniProt O75943-2 1-670)
chain: B1 chain
modifications: phosphoserine at S635 (readily phosphorylated on S635 when expressed in cells)
Consider B3, for which the binding entry in experiment [3] and in experiment [4] was “binds” throughout.
